Measured values from the supplement of paper PMC10949913.

Assays:
CU-ACC1 [1] = assay: area under concentration-response curve (viability) (AUC (a.u.)); higher = less active; conditions: 48 h
How it was run: (§1)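 Three adrenocortical carcinoma cell lines were exposed for 48 h to library compounds at 11 concentrations in 1,536-well plates, then read by CellTiter-Glo luminescence. Signals were scaled per plate against vehicle and empty-well controls. From fitted concentration-response curves of inhibitory or non-responding classes alone, AC50 and area under the curve were obtained.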

NCI-H295R [2] = assay: as above; conditions: 48 h
How it was run: as §1

CU-ACC1 [3] = assay: ExcessHSA synergy score with TAK-243; higher = less synergy (negative = synergistic); conditions: combined with: TAK-243 (MLN-7243) matrix, 9-point 1:2 dilution
Method: (§2)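 Each drug was tested at 9 points with 1:2 dilution; viability was read by CellTiter-Glo as in the single-agent screen. Synergy is scored as ExcessHSA (sum of excess over highest single agent; negative = synergy) and the Beta interaction parameter (<1 synergy).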

NCI-H295R [4] = assay: as above; conditions: combined with: TAK-243 (MLN-7243) matrix, 9-point 1:2 dilution
Method: as §2

CU-ACC2 [5] = assay: area under concentration-response curve (viability) (AUC (a.u.)); higher = less active; conditions: 48 h
How it was run: as §1

CU-ACC1 [6] = assay: AC50 viability; higher = less potent; conditions: 48 h
How it was run: as §1

CU-ACC2 [7] = assay: AC50 viability; higher = less potent; conditions: 48 h
How it was run: as §1

NCI-H295R [8] = assay: AC50 viability; higher = less potent; conditions: 48 h
How it was run: as §1

SMILES	area under concentration-response curve (CU-ACC1 [1])	area under concentration-response curve (NCI-H295R [2])	ExcessHSA synergy score with TAK-243 (CU-ACC1 [3])	ExcessHSA synergy score with TAK-243 (NCI-H295R [4])	area under concentration-response curve (CU-ACC2 [5])	AC50 viability (CU-ACC1 [6])	AC50 viability (CU-ACC2 [7])	AC50 viability (NCI-H295R [8])
CC1=C(C=CC=C1)N2C(=O)C3=C(C=CC=C3C)\N=C2\C[N]4N=C(C5=CC(=CC=C5)O)C6=C(N)N=CN=C46	543	584	–	–	–	–	–	–
COC(=O)[C@H](CCCN=C(N)N)NS(=O)(=O)c1ccc(C)cc1 [TAME]	–	–	-262	-279	–	–	–	–
COc1cc(N2CCN(C(C)=O)CC2)ccc1Nc1ncc(Cl)c(Nc2ccc(N3CCN(C(C)=O)CC3)cc2OC)n1	268	272	–	–	277	9.34 µM	11.8 µM	8.33 µM
Cc1nc2c(-c3cnc(N)nc3)nc(N3CCOCC3)nc2n1C(C)C	352	353	–	–	292	–	–	–
C[C@@H]1C[C@H](N)C[C@H](c2ccncc2NC(=O)c2ccc(F)c(-c3c(F)cccc3F)n2)C1	453	488	–	–	–	23.5 µM	–	23.5 µM
COC(=O)[C@H](CCCNC(=N)N)N[S+](=O)([O-])c1ccc(C)cc1	569	–	–	–	626	–	–	–
